The results in this text go back to the supplement of paper PMC11732987, “Enantioselective OTUD7B fragment discovery through chemoproteomics screening and high-throughput optimisation” (Communications Chemistry, 2025).

Protein sequences, listed by entry. Tags and fused reporters are not part of them. Lines headed by an entry give the natural chain unless they say otherwise; changes in a name come on top. Residues count along the entry.
UniProt Q15052: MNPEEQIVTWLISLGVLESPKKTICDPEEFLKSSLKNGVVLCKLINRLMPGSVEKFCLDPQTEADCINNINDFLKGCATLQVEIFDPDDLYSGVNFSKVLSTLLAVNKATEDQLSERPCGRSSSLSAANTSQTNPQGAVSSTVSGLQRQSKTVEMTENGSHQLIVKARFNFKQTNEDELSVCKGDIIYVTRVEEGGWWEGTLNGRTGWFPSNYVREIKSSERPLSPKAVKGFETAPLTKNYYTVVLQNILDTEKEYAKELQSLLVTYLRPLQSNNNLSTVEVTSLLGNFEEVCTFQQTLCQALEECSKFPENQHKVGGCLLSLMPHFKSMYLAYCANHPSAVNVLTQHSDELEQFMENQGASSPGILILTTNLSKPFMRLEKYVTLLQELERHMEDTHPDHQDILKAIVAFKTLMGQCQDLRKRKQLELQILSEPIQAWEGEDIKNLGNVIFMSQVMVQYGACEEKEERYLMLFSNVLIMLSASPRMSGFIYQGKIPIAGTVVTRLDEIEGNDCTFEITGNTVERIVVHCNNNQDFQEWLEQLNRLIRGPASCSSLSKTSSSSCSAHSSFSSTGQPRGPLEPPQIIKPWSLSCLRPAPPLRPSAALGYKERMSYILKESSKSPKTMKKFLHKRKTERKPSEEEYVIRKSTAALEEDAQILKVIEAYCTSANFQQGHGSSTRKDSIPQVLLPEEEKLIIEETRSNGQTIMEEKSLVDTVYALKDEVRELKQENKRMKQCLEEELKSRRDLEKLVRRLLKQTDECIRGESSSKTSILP
UniProt O95671: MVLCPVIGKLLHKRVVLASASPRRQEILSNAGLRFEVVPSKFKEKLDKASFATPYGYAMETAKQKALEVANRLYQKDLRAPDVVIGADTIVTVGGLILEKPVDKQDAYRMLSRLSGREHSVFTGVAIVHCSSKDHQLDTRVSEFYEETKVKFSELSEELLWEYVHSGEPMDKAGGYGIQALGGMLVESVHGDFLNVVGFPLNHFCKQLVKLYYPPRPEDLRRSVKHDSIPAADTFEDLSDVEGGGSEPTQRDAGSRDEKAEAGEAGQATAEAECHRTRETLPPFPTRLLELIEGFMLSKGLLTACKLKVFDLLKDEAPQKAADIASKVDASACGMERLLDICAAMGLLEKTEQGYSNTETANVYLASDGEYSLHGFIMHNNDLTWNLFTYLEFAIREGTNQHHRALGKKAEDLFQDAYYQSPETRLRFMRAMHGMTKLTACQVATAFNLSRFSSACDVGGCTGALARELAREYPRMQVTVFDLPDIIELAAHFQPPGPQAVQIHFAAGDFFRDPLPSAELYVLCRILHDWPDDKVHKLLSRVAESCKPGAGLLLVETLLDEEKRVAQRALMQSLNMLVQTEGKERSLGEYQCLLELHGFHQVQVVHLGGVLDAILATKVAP
UniProt Q8N3C0: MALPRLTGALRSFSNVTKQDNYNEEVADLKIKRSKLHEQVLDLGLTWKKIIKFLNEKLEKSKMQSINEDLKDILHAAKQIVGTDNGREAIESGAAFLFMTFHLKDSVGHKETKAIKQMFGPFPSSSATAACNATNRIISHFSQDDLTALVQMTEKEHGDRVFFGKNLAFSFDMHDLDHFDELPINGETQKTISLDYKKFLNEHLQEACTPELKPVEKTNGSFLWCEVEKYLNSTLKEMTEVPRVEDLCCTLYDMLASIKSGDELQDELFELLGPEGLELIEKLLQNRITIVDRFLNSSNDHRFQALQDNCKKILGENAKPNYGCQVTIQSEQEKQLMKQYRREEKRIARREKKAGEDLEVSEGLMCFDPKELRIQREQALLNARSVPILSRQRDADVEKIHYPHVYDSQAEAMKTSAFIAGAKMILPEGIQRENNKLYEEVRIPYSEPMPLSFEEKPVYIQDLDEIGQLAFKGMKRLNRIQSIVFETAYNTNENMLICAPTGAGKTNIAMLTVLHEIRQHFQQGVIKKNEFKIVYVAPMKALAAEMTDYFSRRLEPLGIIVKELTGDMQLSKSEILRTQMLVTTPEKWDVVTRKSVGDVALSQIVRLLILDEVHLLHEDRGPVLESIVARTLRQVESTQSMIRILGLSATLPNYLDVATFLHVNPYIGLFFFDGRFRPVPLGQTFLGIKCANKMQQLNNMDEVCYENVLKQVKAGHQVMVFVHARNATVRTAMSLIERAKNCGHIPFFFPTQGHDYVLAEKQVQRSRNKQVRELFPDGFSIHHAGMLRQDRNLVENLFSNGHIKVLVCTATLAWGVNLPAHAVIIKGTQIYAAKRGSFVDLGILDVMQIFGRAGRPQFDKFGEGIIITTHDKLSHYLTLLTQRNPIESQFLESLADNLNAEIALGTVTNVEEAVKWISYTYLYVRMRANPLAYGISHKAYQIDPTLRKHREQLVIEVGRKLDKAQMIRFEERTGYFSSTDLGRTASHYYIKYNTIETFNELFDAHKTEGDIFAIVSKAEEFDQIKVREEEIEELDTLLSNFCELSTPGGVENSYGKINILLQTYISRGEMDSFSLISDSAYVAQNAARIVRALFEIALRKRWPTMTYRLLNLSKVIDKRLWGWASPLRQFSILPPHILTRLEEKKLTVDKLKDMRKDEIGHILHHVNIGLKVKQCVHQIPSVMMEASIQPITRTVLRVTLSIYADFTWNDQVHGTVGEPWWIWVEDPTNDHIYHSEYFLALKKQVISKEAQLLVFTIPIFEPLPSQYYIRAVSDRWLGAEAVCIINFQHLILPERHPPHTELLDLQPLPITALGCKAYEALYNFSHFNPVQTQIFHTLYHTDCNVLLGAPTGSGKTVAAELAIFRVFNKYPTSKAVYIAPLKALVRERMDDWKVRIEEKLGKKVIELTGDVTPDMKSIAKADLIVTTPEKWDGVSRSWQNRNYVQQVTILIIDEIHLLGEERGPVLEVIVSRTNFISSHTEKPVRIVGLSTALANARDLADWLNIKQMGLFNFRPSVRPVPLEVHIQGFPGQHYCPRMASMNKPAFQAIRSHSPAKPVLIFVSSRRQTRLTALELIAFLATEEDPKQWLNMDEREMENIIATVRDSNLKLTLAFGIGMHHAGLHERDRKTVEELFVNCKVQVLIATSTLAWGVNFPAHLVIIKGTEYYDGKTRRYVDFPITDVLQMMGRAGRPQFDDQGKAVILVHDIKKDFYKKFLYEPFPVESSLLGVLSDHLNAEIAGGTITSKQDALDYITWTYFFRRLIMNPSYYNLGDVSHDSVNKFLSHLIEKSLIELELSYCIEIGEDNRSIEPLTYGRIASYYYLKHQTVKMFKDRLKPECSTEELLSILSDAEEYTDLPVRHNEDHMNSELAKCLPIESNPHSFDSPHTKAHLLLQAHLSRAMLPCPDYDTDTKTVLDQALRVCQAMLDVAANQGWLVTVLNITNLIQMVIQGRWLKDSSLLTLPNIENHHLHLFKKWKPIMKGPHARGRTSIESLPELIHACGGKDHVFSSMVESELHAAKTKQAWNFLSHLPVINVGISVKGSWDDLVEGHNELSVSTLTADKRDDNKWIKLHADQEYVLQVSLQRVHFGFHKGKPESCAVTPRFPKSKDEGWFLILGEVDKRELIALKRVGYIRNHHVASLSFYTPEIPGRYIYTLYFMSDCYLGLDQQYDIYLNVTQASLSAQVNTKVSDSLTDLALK
UniProt Q68CP9, 1312-1338: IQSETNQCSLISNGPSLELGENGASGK
UniProt Q92688: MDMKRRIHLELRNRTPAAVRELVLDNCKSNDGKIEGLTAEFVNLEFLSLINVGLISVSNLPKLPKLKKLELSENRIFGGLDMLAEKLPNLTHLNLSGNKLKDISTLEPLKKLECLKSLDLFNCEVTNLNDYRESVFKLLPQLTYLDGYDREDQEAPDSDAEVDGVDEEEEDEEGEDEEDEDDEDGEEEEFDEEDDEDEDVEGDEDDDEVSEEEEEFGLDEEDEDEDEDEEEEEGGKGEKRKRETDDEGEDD
UniProt Q7Z3E5, 354-374: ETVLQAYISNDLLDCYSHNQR
UniProt O95782: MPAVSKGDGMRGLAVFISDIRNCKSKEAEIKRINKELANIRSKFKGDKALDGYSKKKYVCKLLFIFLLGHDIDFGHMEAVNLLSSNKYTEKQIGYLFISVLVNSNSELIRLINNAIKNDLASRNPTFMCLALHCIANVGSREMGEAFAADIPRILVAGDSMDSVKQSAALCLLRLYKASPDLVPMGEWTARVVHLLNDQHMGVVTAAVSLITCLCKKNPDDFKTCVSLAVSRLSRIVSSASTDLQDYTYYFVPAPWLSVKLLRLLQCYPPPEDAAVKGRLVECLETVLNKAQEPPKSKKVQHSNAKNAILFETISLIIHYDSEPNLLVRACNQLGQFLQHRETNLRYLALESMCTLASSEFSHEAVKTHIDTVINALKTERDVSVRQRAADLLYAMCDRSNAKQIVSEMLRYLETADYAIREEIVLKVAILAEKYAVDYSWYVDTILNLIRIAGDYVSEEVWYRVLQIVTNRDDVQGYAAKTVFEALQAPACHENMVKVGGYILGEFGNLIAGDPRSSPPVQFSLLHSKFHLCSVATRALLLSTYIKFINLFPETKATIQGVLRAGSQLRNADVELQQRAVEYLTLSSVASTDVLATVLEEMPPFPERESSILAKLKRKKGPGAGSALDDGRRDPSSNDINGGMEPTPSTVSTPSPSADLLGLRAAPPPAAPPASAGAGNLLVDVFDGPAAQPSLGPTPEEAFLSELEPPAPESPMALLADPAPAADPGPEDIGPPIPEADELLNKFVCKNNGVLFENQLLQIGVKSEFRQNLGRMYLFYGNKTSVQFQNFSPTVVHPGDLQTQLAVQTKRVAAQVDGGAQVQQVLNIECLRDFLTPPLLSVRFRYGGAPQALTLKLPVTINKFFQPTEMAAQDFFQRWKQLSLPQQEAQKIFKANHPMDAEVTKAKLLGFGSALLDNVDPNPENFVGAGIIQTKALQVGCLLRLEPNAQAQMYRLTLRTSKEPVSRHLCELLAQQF
UniProt O75179, 556-581: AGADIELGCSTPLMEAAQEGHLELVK
UniProt Q68EM7: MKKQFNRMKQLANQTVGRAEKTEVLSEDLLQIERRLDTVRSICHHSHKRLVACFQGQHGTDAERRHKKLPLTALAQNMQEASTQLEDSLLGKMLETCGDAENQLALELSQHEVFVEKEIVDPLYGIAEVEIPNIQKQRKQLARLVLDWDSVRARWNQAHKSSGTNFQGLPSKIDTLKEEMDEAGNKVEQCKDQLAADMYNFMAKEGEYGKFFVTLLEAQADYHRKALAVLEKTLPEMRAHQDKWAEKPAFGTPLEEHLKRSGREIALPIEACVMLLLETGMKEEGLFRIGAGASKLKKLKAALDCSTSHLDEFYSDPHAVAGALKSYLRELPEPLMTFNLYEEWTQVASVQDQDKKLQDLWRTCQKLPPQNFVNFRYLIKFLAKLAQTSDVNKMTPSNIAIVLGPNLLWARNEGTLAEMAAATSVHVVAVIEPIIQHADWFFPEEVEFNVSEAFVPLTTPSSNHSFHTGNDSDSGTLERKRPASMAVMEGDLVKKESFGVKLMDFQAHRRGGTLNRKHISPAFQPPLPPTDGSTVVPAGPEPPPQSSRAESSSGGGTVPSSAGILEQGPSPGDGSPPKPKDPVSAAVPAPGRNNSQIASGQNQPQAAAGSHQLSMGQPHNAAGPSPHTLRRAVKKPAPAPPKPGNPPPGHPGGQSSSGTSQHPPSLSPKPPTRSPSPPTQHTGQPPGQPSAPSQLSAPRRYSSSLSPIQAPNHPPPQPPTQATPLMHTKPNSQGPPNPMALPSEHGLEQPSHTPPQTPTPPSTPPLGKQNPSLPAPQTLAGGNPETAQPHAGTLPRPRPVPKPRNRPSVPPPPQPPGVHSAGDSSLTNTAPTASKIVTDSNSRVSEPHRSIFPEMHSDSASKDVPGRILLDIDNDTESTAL
UniProt P27540: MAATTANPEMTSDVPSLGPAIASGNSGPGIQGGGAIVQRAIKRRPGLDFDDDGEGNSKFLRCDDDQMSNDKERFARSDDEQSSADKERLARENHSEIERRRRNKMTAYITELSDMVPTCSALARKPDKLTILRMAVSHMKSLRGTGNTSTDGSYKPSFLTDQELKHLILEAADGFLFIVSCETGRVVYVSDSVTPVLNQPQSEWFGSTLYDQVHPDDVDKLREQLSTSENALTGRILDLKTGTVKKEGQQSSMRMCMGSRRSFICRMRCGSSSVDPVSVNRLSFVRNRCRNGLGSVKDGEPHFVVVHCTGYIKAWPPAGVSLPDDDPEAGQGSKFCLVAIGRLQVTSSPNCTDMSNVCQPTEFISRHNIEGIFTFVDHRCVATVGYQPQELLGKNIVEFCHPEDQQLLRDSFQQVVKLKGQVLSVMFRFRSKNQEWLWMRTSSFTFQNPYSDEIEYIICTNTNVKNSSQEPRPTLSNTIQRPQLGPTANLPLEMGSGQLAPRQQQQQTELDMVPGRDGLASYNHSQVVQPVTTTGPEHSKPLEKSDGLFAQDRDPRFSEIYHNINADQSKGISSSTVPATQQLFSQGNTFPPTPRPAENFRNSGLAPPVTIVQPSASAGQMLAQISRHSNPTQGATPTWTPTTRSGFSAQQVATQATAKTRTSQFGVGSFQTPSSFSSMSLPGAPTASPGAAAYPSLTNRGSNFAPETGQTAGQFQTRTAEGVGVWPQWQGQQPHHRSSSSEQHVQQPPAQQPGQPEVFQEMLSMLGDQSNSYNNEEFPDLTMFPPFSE

Some of the results follow. The data scatter; read single values as rough.

Compound in experiment [1]: ClCC(=O)N[C@@H]1CCCc2ccccc12
In words: log2 mean competition ratio of IA-DTB cysteine labelling (DMSO/compound) (log2 ratio); higher = stronger cysteine engagement by compound. The settings on record: treatment time: 4 h, cell line lysate: HEK293T. The procedure: (§1)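 IA-DTB competitive cysteine chemoproteomics in HEK293T RIPA lysate. Lysates were treated with compound 29 or 30 at 50 or 200 µM for 4 h, then IA-DTB (500 µM, 1 h), trypsin-digested, NeutrAvidin-enriched and analysed by diaPASEF. Competition ratio = intensity DMSO / intensity compound (n=4 treated, n=64 DMSO); binding: mean log2 CR ≥ 1 and p ≤ 0.05 plus QC filters. Target is the cysteine site.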

Compound in experiment [2]: ClCC(=O)N[C@H]1CCCc2ccccc12
The description is as above. The settings on record: treatment time: 4 h, cell line lysate: HEK293T. On the procedure:
as §1

With ARHGEF6 C182 (UniProt Q15052), the “log2 mean competition ratio” value in experiment [1] (50 µM) was -0.19; in experiment [1] (200 µM) it was 0.000692; in experiment [2] (50 µM) it was -0.61; in experiment [2] (200 µM), 0.127.

For ASMTL C333 (UniProt O95671), the “log2 mean competition ratio” value in experiment [1] (50 µM) was -0.0791; in experiment [1] (200 µM) it was 0.149; in experiment [2] (50 µM) it was 0.00504; in experiment [2] (200 µM), 0.213.

Consider ARFGEF1 C102 (UniProt Q9Y6D6), for which the “log2 mean competition ratio” value amounted to 0.286 in experiment [1] (50 µM), 0.428 in experiment [1] (200 µM), 0.518 in experiment [2] (50 µM) and 0.385 in experiment [2] (200 µM).

As for ARHGAP32 C1872 (UniProt A7KAX9), the “log2 mean competition ratio” value in experiment [1] (50 µM) is 0.0365; in experiment [1] (200 µM) it was 0.13; in experiment [2] (50 µM) it was -0.551; in experiment [2] (200 µM), 0.238.

On to ASCC3 C366 (UniProt Q8N3C0), for which the “log2 mean competition ratio” value in experiment [1] (50 µM) is -0.198; in experiment [1] (200 µM) it was -0.118; in experiment [2] (50 µM), -0.214; in experiment [2] (200 µM) it was -0.192.

Regarding ARID2 C1319 (UniProt Q68CP9), the “log2 mean competition ratio” value is -0.281 in experiment [1] (50 µM), 0.125 in experiment [1] (200 µM), 0.612 in experiment [2] (50 µM) and -0.00421 in experiment [2] (200 µM).

Regarding ANP32B C27 (UniProt Q92688), the “log2 mean competition ratio” value in experiment [1] (50 µM) was -0.326; in experiment [1] (200 µM) it was -0.133; in experiment [2] (50 µM), 0.262; in experiment [2] (200 µM), 0.117.

For ANKRD26 C735 (UniProt Q9UPS8), the “log2 mean competition ratio” value in experiment [1] (50 µM) was 0.0617; in experiment [1] (200 µM), 0.0705; in experiment [2] (50 µM), -0.00782; in experiment [2] (200 µM) it was -0.108.

ARMC9 C368 (UniProt Q7Z3E5): the “log2 mean competition ratio” value in experiment [1] (50 µM) was 0.0377; in experiment [1] (200 µM), 0.102; in experiment [2] (50 µM) it was 0.177; in experiment [2] (200 µM), -0.0807.

Turning to APC C520 (UniProt P25054), the “log2 mean competition ratio” value in experiment [1] (50 µM) was -0.0959; in experiment [1] (200 µM), -0.105; in experiment [2] (50 µM), -0.403; in experiment [2] (200 µM), 0.13.

Take AP2A1 C283 (UniProt O95782): the “log2 mean competition ratio” value in experiment [1] (50 µM) was 0.641; in experiment [1] (200 µM), -0.0133; in experiment [2] (50 µM) it was -0.0924; in experiment [2] (200 µM), -0.00671.

With ANKRD17 C564 (UniProt O75179), the “log2 mean competition ratio” value in experiment [1] (50 µM) was 0.17; in experiment [1] (200 µM), 0.262; in experiment [2] (50 µM), -0.119; in experiment [2] (200 µM) it was -0.0782.

Regarding ARHGAP35 C620 (UniProt Q9NRY4), the “log2 mean competition ratio” value in experiment [1] (50 µM) is -0.105; in experiment [1] (200 µM), 0.0367; in experiment [2] (50 µM) it was -0.779; in experiment [2] (200 µM), -0.0855.

Consider ARHGAP17 C190 (UniProt Q68EM7), for which the “log2 mean competition ratio” value in experiment [1] (50 µM) was -0.312; in experiment [1] (200 µM), 0.133; in experiment [2] (50 µM) it was -0.589; in experiment [2] (200 µM) it was -0.221.

Regarding ARNT C62 (UniProt P27540), the “log2 mean competition ratio” value in experiment [1] (50 µM) is -0.235; in experiment [1] (200 µM), 0.0498; in experiment [2] (50 µM), -0.311; in experiment [2] (200 µM), 0.263.
